According to article PMC10611828 (European Journal of Nuclear Medicine and Molecular Imaging, 2023):

Key:
[1] = general procedure: Fmoc solid-phase peptide synthesis; Chlorotrityl resin; Rink amide MBHA resin; HBTU/Oxyma Pure/DIPEA; PyBOP/DIPEA; details: whole synthesis, HPLC (LC/MS 1260 Infinity II, Agilent)
[2] = general procedure: Fmoc solid-phase peptide synthesis; Rink Amide MBHA Resin; HBTU/Oxyma Pure/DIPEA; PyBOP/DIPEA; details: whole synthesis
[3] = general procedure: Fmoc solid-phase peptide synthesis; Chlorotrityl resin; HBTU/Oxyma Pure/DIPEA; PyBOP/DIPEA; details: whole synthesis

Substance	final purity (method not given) [1]	isolated yield [2]	isolated yield [3]
DOTA-Pip-D-Phe-Gln-Trp-Ala-Val-Gly-His-Sta-Leu-NH2 [RM2]	> 95%	55.9%	
DOTA-pADA-D-Phe-Gln-Trp-Ala-Val-Gly-His-NH-CH[CH2-CH(CH3)2]2	> 95%		50.2%
